Laboratory results reported in PubChem BioAssay AID540256 (National Center for Advancing Translational Sciences (NCATS), 2011).
About 3,700 (1.2%) of roughly 300,000 compounds were called active. This list was built around the results that the source calls inconclusive (neither active nor inactive); the mix of calls is not that of the screen. The call rests on the fitted dose curve; tested in HEK293 cells. Potencies of inconclusive entries are doubtful fits and often do not repeat.
On the % scale 0 is the no-effect control and ±100 the full control effect; potency means the concentration at half of the fitted maximal effect.

Experiment: qHTS for Inhibitors of binding or entry into cells for Lassa Virus; further: nearly all actives have a fitted effect of over 50% in size
Conditions: Lassa virus pseudotype entry inhibition, cell reporter; activity change, negative = inhibition: at 37.9 µM (top of the series) unless noted
For `CC(C)c1nc2sc3c(SCC(=O)NCc4ccco4)ncnc3c2c2c1CCC2`, the Potency was inconclusive: 35.5 µM [inhibitor, single point].
For `CC(=O)n1c(-c2ccccc2)c(-c2ccccc2)n(C)c1=O`, the “activity change, negative = inhibition” value was inactive: -9.16%.
For `COc1cc(NC(=S)N2CCN(C(c3ccccc3)c3ccccc3)CC2)cc(OC)c1`, the Potency was inconclusive: 29.1 µM [inhibitor, single point].
With `C/C(=N\Nc1ccccn1)c1ccc(S(=O)(=O)NCc2ccco2)cc1` the Potency was inconclusive: 35.5 µM [inhibitor, single point].
In the case of `COc1cccc(OC)c1C(=O)Nc1c(C)n(C)n(-c2ccccc2)c1=O`, the Potency is reported as inconclusive: 14.6 µM [inhibitor, partial curve, poor fit].
In the case of `O=C(NNC(=O)C1CCN(Cc2ccc(F)cc2Cl)CC1)Nc1ccc([N+](=O)[O-])cc1`, the “activity change, negative = inhibition” value is reported as inactive: -17.1%.
With `CN(C(=O)Cn1cc(S(=O)(=O)Cc2ccccc2Cl)c2ccccc21)c1ccccc1` the Potency was inconclusive: 35.5 µM [inhibitor, single point].
With `COc1ccc(-c2nn3c(-c4ccccc4C)nnc3c3ccccc23)cc1` the Potency was inconclusive: 3.16 µM [inhibitor, partial curve, poor fit].
With `Cc1cccc(NC(=O)Nc2nnc(N(C)Cc3ccccc3)s2)c1` the “activity change, negative = inhibition” value was inactive: 3.37% [at 46.1 µM].
In the case of `Cc1ccc(N2CCN(S(=O)(=O)c3ccc(F)c(C)c3)CC2)c(C)c1`, the Potency is reported as inconclusive: 12.6 µM [inhibitor, partial curve].
For `CNC(=O)/C(C#N)=C/c1c(N(Cc2ccccc2)Cc2ccccc2)nc2c(C)cccn2c1=O`, the Potency was inconclusive: 15.8 µM [inhibitor, single point].
With `CN(C(=O)CSCC(=O)O)C1CCCCC1` the “activity change, negative = inhibition” value was inactive: 1.39%.
For `Cc1cccc(N=C2NC(=O)/C(=C/C=C/c3ccco3)S2)c1`, the Potency was active: 17.8 µM.
In the case of `COc1ccc(C)cc1N(C(=O)c1snc(C(N)=O)c1N)C(C(=O)NC1CCCC1)c1ccc(F)cc1` (stereo not drawn), the Potency is reported as inconclusive: 7.94 µM [inhibitor, partial curve, poor fit].
For `FC(F)(F)c1cc(-c2ccco2)nc(-n2nc(C(F)(F)F)cc2C2CC2)n1`, the Potency was inconclusive: 0.0517 µM [activator, full curve, poor fit].
For `O=S(=O)(c1ccc(Br)s1)N1CCN(CCOc2ccccc2)CC1`, the Potency was inconclusive: 35.5 µM [inhibitor, single point].
With `CCOc1ccc(/C=C2/Sc3ccc(C(=O)N4CCOCC4)cc3N(C)C2=O)cc1OC` the Potency was inconclusive: 7.94 µM [inhibitor, partial curve, poor fit].
In the case of `Nc1c2c(nc3sc4c(c13)CCCC4)CCCCC2`, the Potency is reported as inconclusive: 0.0891 µM [activator, full curve, poor fit].
With `CN(Cc1ccccc1)C(=S)NC(=O)c1cccs1` the Potency was inconclusive: 11.2 µM [inhibitor, single point].
For `CCOc1ccccc1NC(=O)c1ccc(F)c(S(=O)(=O)NCc2ccc3c(c2)OCO3)c1`, the “activity change, negative = inhibition” value was inactive: -17.4% [at 46.1 µM].
With `CN(C)c1ccc(Sc2nnc(NC(=O)Nc3ccc(Cl)cc3Cl)s2)cc1` the Potency was inconclusive: 5.62 µM [inhibitor, single point].
For `CCOC(=O)c1c(C)sc2c1N(C(=O)CN1CCOCC1)c1cc(Cl)ccc1S2`, the Potency was inconclusive: 10 µM [inhibitor, partial curve, poor fit].
In the case of `Nc1c(C(=O)NCc2ccco2)c2nc3ccccc3nc2n1CCc1ccc(F)cc1`, the “activity change, negative = inhibition” value is reported as inactive: -15%.
For `CCCc1cnc2c(c1SCC(=O)Nc1ccc(C)c(Cl)c1)c(=O)n(C)c(=O)n2C`, the “activity change, negative = inhibition” value was inactive: -25.8% [at 46.1 µM].
With `COc1cc(/C=C(\C#N)c2nc3ccccc3[nH]2)ccc1OCc1cccc(C(F)(F)F)c1` the Potency was inconclusive: 3.16 µM [inhibitor, full curve, poor fit].
In the case of `O=c1n(Cc2ccc(Cl)cc2)c2sc3c(c2c2ncnn12)CCCC3`, the Potency is reported as inconclusive: 14.1 µM [inhibitor, partial curve, poor fit].
With `CN1CCCC2(CCCN(Cc3nc(Cc4cccc(C(F)(F)F)c4)no3)C2)C1` (stereo not drawn) the “activity change, negative = inhibition” value was inactive: 18.9% [at 46.1 µM].
With `O=C(c1cccc(Cl)c1)N1CCCc2ccccc21` the “activity change, negative = inhibition” value was inactive: 0.698%.
In the case of `O=C(CSCc1ccc([N+](=O)[O-])cc1)NC1CC1`, the “activity change, negative = inhibition” value is reported as inactive: -0.564%.
With `COC(=O)c1ccc(N2CCN(c3ccccc3)CC2)c(NC(=O)C2CC2)c1` the “activity change, negative = inhibition” value was inactive: -3.42%.
In the case of `CCCCNC(=O)CCCn1c(=O)c2ccccc2n(CC(=O)Nc2ccccc2OCC)c1=O`, the “activity change, negative = inhibition” value is reported as inactive: -11.4% [at 46.1 µM].
With `COC(=O)C1=C(C)Nc2c(c(=O)n(C)c(=O)n2C)C1c1ccc(C)cc1` (stereo not drawn) the Potency was inconclusive: 1.26 µM [inhibitor, single point].
For `COc1ccc(Cn2c(C(=O)O)c(CNCc3ccc(C)o3)c3ccc(C)cc32)cc1`, the Potency was inconclusive: 35.5 µM [inhibitor, single point].
For `Cc1ccsc1C(=O)C1CCCN(Cc2cc(F)ccc2-n2cccn2)C1` (stereo not drawn), the Potency was inconclusive: 25.1 µM [inhibitor, single point].
For `CC1(C)CC(=O)C(C(C2=C(O)CC(C)(C)CC2=O)c2ccc(Br)s2)C(=O)C1` (stereo not drawn), the Potency was active: 12.6 µM.
In the case of `COc1ccc2[nH]c(=O)c(CN(Cc3cccs3)S(=O)(=O)c3cccc4nsnc34)cc2c1`, the Potency is reported as inconclusive: 20.6 µM [inhibitor, single point].
For `COC(=O)c1cccc(-n2c(CCC(=O)O)ccc2-c2cccs2)c1`, the “activity change, negative = inhibition” value was inactive: 2.49% [at 46.1 µM].
In the case of `FC(F)(F)c1cccc(NC(=S)N2CCN(c3cccc(C(F)(F)F)c3)CC2)c1`, the Potency is reported as inconclusive: 12.6 µM [inhibitor, partial curve, poor fit].
For `COc1ccc2cc(C(=O)C3CCCN(C(=O)CCc4ccccn4)C3)ccc2c1` (stereo not drawn), the “activity change, negative = inhibition” value was inactive: 20.6%.
For `CCC(=O)N1CCN(c2ccccc2NC(=O)c2ccc(OC)c(Cl)c2)CC1`, the “activity change, negative = inhibition” value was inactive: -12.1%.
For `CC(=O)Nc1ccc(NC(=O)Oc2ccccc2)cc1`, the Potency was inconclusive: 7.3 µM [inhibitor, single point].
For `COc1ccc(C2C(C#N)=C(N)N(c3ccccc3)C3=C2C(=O)CCC3)cc1Cn1cc([N+](=O)[O-])cn1` (stereo not drawn), the Potency was inconclusive: 22.4 µM [inhibitor, single point].
With `COc1ccc(S(=O)(=O)N2CCCCC2)cc1NC(=O)c1ccc(OC)c(OC)c1` the Potency was inconclusive: 1 µM [inhibitor, single point].
